Measured values as given in US5624818.

Chains of the proteins cited; added tags and fusions are not shown. Chains listed by the source or under a name are the forms on record and can include a tag or linker.
UniProt P61244, other isoform, or with tags, fused parts or gaps: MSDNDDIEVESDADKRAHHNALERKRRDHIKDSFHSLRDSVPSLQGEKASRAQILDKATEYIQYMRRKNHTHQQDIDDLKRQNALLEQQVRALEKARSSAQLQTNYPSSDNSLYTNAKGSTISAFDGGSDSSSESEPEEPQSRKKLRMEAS
c-Myc full length in vitro translated (Homo sapiens), one chain, as listed by the source: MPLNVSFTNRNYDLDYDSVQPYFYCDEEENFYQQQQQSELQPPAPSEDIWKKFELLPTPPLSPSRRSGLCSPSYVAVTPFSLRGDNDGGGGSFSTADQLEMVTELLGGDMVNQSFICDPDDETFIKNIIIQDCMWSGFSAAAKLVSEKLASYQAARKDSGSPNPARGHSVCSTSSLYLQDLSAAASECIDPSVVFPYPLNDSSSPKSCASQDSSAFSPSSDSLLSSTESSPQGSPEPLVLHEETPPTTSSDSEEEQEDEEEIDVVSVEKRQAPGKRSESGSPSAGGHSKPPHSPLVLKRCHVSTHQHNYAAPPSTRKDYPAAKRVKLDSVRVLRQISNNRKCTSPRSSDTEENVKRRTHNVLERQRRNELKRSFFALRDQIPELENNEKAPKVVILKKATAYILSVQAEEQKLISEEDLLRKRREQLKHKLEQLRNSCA
mSin:Mad:Max ternary complex, one chain, as listed by the source, chain 2 of 3: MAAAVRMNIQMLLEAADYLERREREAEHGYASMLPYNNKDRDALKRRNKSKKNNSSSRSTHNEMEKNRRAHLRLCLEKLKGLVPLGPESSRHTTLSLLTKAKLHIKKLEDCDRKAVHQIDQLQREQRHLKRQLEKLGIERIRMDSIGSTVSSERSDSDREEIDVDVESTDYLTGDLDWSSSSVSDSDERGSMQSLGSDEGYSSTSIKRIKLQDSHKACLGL
GST-Mad:Max CKII-phosphorylated (Papio (baboon) / Homo sapiens), one chain, as listed by the source, chain 1 of 2: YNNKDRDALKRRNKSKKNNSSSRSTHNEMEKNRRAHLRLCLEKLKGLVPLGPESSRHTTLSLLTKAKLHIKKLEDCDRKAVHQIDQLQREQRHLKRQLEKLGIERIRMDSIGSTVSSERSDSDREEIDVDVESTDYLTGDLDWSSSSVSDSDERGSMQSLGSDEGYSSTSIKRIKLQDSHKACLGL
mSin:Mad:Max ternary complex, one chain, as listed by the source, chain 3 of 3: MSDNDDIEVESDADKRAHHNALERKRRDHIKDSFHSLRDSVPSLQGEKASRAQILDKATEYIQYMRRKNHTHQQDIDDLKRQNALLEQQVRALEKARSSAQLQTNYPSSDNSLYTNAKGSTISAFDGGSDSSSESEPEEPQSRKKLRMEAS

What was measured:
[1] = tested on: mSin:Mad:Max ternary complex; experiment: binding assay; conditions: ternary complex binding stated without data; method not stated; protein translated in vitro; cited from earlier work
[2] = tested on: GST-Mad:Max CKII-phosphorylated (Papio (baboon) / Homo sapiens); experiment: EMSA; conditions: binding unaffected by CKII phosphorylation; purified recombinant protein; protein details: GST on Mad, CKII + ATP treated Max; label: 32P
[3] = tested on: c-Myc full length in vitro translated (Homo sapiens); experiment: EMSA; conditions: protein translated in vitro; label: 32P
[4] = biological target: Max CKII-phosphorylated (Homo sapiens) (UniProt P61244); experiment: EMSA; conditions: CKII + ATP abolishes homodimer binding; purified recombinant protein; protein details: CKII + ATP treated, baculovirus Sf9; label: 32P
[5] = tested on: Mad-1-His6:Max heterodimer (Homo sapiens); experiment: EMSA; conditions: similar affinity to Myc:Max; purified recombinant protein; protein details: His6 on Mad; label: 32P
[6] = tested on: GST-Mad:Max heterodimer (Papio (baboon) / Homo sapiens); experiment: EMSA; conditions: supershift with anti-Max and anti-GST; heterodimer favored over Max:Max; purified recombinant protein; protein details: GST on Mad; label: 32P
[7] = biological target: Max (p21) in vitro translated (Homo sapiens) (UniProt P61244); experiment: EMSA; conditions: no additional binding over lysate background; protein translated in vitro; label: 32P
[8] = tested on: c-Myc deltaLZ + Max c-Myc deletion of 416-439 (Homo sapiens); experiment: EMSA; conditions: protein translated in vitro; label: 32P
[9] = tested on: USF (endogenous in reticulocyte lysate); experiment: EMSA; conditions: background band of unprogrammed lysate, altered by anti-USF (unpublished data); protein in an extract; label: 32P
[10] = tested on: c-Myc deltaBR:Max c-Myc deletion of 353-367 (Homo sapiens); experiment: EMSA; conditions: still associates with Max; protein translated in vitro; label: 32P
[11] = biological target: Max (p21, 151 aa form, lacks 9-aa insertion) (Homo sapiens) (UniProt P61244); experiment: EMSA; conditions: supershift with anti-Max; 5 mM MgCl2, 50 mM KCl, 4 C gel; purified recombinant protein; label: 32P
[12] = biological target: Max (p21, 151 aa form, lacks 9-aa insertion) (Homo sapiens) (UniProt P61244); experiment: competition with a labelled probe; conditions: 25-100 ng unlabeled MREA does not compete with CM-1; purified recombinant protein

CACGTG (double strand) [CACGTG E-box]
binding result [1]: binds

CCCCCACCACGTGGTGCCTGA (double strand) [CM-1]
binding result [2]: binds
binding result [3]: binds more weakly
binding result [4]: no binding
binding result [5]: binds
binding result [6]: binds
binding result [7]: no binding
binding result [8]: no binding
binding result [9]: binds
binding result [10]: no binding
binding result [11]: binds

TCGAGTAAGACACCCGTTACTTTACG (double strand) [MREA (Mim-1 promoter)]
binding result [12]: no binding

For part of these data: No signal at the amounts used counts as a negative. For part of these data: The comparison behind a weaker result is the experiment's own reference, which may not be listed here. For part of these data: The exact form of at least one protein or probe is not confirmed. For part of these data: Where cells or extracts were used, other partners may take part.
